In patent publication US20200147120A1 (NATIONAL UNIVERSITY CORPORATION CHIBA UNIVERSITY, published 2020):
Results are given in words; binding and its absence hold for the method and conditions named. Some results given as binding are weak or reduced against the parent protein; the word gives no strength.

Chains of the proteins cited; added tags and fusions are not shown.
UniProt Q12824: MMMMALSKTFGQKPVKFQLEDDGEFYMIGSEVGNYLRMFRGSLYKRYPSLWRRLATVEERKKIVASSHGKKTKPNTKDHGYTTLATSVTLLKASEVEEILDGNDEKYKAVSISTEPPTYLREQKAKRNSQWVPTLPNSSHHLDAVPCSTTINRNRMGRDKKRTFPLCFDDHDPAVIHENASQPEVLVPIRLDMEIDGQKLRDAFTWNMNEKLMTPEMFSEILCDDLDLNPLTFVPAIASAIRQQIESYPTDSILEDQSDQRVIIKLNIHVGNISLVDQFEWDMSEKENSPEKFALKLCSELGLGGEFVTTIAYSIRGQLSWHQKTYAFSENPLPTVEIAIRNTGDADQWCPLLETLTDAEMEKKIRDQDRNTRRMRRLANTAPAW
UniProt Q96GM5: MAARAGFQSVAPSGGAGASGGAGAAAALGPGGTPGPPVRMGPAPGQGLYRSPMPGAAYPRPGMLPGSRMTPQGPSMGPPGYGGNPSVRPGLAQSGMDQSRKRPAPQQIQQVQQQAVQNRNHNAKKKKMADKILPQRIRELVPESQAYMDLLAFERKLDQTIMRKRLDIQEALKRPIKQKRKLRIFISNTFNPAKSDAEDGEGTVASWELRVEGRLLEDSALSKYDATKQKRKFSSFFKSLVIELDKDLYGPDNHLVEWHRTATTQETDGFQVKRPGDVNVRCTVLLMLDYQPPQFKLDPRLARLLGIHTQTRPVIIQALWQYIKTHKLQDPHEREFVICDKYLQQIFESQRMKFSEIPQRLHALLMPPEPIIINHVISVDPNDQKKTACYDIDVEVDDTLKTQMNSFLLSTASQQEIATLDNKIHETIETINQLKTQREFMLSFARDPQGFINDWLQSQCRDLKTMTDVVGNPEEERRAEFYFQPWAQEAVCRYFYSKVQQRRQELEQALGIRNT

Tests used:
Assay in all cases: binding test of DPF2 truncation mutants; format not described
[1] = target: Ini1 (UniProt Q12824)
[2] = target: BAF60a (UniProt Q96GM5)
[3] = target: T1, NF-κB subunit p52 (UniProt Q00653)
T1 sequence (looked up): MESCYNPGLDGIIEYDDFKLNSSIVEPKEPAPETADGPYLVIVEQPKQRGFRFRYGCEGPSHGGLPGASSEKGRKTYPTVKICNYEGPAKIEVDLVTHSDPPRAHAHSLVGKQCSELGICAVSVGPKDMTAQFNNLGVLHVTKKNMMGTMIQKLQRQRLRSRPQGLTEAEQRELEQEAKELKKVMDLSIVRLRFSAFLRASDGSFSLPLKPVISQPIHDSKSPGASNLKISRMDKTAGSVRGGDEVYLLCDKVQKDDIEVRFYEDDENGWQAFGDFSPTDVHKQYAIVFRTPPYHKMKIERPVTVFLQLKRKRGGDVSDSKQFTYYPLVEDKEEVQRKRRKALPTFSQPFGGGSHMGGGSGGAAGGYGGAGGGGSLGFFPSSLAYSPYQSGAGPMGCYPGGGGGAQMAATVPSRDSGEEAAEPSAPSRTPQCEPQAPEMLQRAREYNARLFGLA

- binding [1]: binds
- binding [2]: binds
- binding [3]: binds
B1: DPF2-CT1 (CT1 peptide of DPF2, amino acid residues 1 to 84) (peptide)
peptide: MAAVVENVVKLLGEQYYKDAMEQCHNYNARLCAERSVRLPFLDSQTGVAQSNCYIWMEKRHRGPGLASGQLYSYPARRWRKKRR
notes: One of a series of truncation mutants of DPF2
